PubChem BioAssay AID686937, Drosophila RNAi Screening Center – 2013
Assay: 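Genes in the fly needed for secretion of protein constitutively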 (primary screen). Cell system: Drosophila S2 cells expressing secreted horseradish peroxidase. Knock-down reagent: long dsRNA against Drosophila genes. Time to read-out: about 5.5 days (5 days dsRNA, then 12 h reporter induction). Conditions: reporter expression induced after 5 days of dsRNA, read 12 h later; inducer not stated. Measured: 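Chemiluminescent measurement of peroxidase in the medium 12 h after reporter induction, following 5 days of dsRNA, given as a z-score per plate; higher means more secretion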. Direction: z-score: higher = more reporter secreted into medium.
The deposit covers about 23,000 reagents; this is an unselected part of those with a known target gene and a result. 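Reduced-secretion tags in replicate 1 do not always agree with the z-scores; no criterion for assigning the tags was given.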 The numbers tell different reagents against one gene apart. Further read-outs or replicates are left out here. The record does not give: the amount of reagent.

mRpL33
- z-score, replicate 1: 0.27

Caper
- z-score, replicate 1: -1.16

CG13516
- z-score, replicate 1: 0.1

CR33317
- z-score, replicate 1: 0.27

CG15529
- z-score, replicate 1: -0.03

wake #1
- z-score, replicate 1: 0.33

wake #2
- z-score, replicate 1: 0.35

Alp1
- z-score, replicate 1: 0.21

CG6044
- z-score, replicate 1: 0.56

lncRNA:CR31781 #1
- z-score, replicate 1: -7.74
- phenotype, replicate 1: reduced secretion

lncRNA:CR31781 #2
- z-score, replicate 1: 0.83

Wnt5
- z-score, replicate 1: 0.02

MED21
- z-score, replicate 1: 0.5

CG18540
- z-score, replicate 1: -0.06

HBS1
- z-score, replicate 1: -0.06

SelG
- z-score, replicate 1: 0.05

RNaseZ
- z-score, replicate 1: 0.4

CG4627
- z-score, replicate 1: -0.05

CG8925 #1
- z-score, replicate 1: 0.09

CG8925 #2
- z-score, replicate 1: 0.35

CG8925 #3
- z-score, replicate 1: 0.22

Dyb #1
- z-score, replicate 1: 0.19

Dyb #2
- z-score, replicate 1: 0.17

pad
- z-score, replicate 1: -0.42

CG14710
- z-score, replicate 1: 0.18

CCT5
- z-score, replicate 1: -0.5

CG18537
- z-score, replicate 1: 0.46

Rab11
- z-score, replicate 1: -5.08
- phenotype, replicate 1: reduced secretion

Myo10A #1
- z-score, replicate 1: 0.15

Myo10A #2
- z-score, replicate 1: 0.39

Myo10A #3
- z-score, replicate 1: 0.21

CG10555
- z-score, replicate 1: -0.76

obst-I
- z-score, replicate 1: 0.22

Traf4 #1
- z-score, replicate 1: 0.68

Traf4 #2
- z-score, replicate 1: 0.42

CG9426
- z-score, replicate 1: -0.1

SerT
- z-score, replicate 1: 0.52

jumu
- z-score, replicate 1: -0.89

CG10654
- z-score, replicate 1: 0.46

CG31251
- z-score, replicate 1: 0.43
